## Percent effect of library compounds

Protein sequences, listed by entry. Tags and fused reporters are not part of them. Residues count along the entry.
UniProt Q4DA54, 1-478: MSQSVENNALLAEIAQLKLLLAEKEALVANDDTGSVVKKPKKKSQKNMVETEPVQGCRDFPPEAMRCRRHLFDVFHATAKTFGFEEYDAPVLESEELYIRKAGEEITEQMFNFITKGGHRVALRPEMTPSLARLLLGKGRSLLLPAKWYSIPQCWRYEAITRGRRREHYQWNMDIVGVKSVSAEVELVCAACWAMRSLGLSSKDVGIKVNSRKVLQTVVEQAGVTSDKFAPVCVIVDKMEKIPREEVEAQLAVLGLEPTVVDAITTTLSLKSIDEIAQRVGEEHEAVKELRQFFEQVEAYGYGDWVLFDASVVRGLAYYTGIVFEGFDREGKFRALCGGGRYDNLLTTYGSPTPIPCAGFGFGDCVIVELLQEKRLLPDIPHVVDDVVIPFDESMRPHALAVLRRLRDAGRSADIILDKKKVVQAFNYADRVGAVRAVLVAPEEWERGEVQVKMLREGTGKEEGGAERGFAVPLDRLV
UniProt A4I591, 1-473: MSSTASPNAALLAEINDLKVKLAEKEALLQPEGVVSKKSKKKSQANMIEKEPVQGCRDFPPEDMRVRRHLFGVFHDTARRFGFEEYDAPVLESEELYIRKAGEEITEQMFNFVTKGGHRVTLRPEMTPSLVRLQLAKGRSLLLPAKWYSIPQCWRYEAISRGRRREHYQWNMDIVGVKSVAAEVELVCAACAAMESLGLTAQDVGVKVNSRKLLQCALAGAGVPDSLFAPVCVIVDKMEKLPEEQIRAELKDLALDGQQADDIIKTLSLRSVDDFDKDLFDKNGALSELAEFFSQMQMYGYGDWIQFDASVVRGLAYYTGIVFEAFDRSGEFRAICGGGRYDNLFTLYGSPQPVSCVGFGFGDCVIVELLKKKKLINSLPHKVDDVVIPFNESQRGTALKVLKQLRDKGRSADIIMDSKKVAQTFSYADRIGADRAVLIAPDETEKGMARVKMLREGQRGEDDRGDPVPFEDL

From ChEMBL document CHEMBL3988442, “University of Dundee, Small-Polar-MMV Screening Library” (2021).

The filed quantity is “Percent Effect” (%).
The record does not define 0% and 100%; most values in the screen are far below 50% and negative numbers occur (in some assays of this library far below -100).
This is an unselected part of the compounds tested.

Toxoplasma: 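Assay of Toxoplasma gondii numbers, read through their beta-galactosidase reporter with a colour substrate. Compounds at 10 µM. The record gives no direction; the compounds picked for IC50 retests had high values, so higher reads as fewer parasites. Size under these conditions: about 67,000 compounds, about 260 of them at 50% or above in at least one test.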
TcHisRS: 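Enzyme assay of histidyl-tRNA synthetase; the read-out is not stated. Target: Histidine-tRNA ligase, Trypanosoma cruzi CL Brener (UniProt Q4DA54). Tested at 30 µM. The record gives no direction; compounds that gave an IC50 in retests scored well above the rest, so higher reads as stronger inhibition. Size under these conditions: about 69,000 compounds, about 31 of them at 50% or above in at least one test.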
LiHisRS: 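Enzyme assay of histidyl-tRNA synthetase; the read-out is not stated. Target: Histidine-tRNA ligase, Leishmania infantum (UniProt A4I591). Tested at 30 µM. The record gives no direction; compounds that gave an IC50 in retests scored well above the rest, so higher reads as stronger inhibition. The assay is labelled LdHisRS but filed under L. infantum. Of about 69,000 compounds tested this way, about 410 (0.6%) reached 50% or more in at least one test.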
T. brucei: 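Whole-parasite assay of Trypanosoma brucei over 72 hours; the read-out is not stated. Compounds at 30 µM. Higher reads as stronger inhibition (inferred: compounds with an IC50 in retests scored well above the rest). Values scatter widely below zero; nearly all retest evidence comes from the higher of the two concentrations used. About 64,000 compounds were tested under these conditions; 1.5% (about 940) showed 50% or more at least once.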

Compound: Cc1nc(CN2C(=O)CC[C@@H]3[C@H]2CCN3C2CCOCC2)cs1
TcHisRS: 10.05
LiHisRS: 9.574

Compound: Cc1ccc2c(c1)C(NC(=O)N(C)C)CC21CCN(C)CC1.O=C(O)C(F)(F)F (stereo unspecified)
Toxoplasma: 5.365
T. brucei: -10.83

Compound: O=C(O)C(F)(F)F.O=C(O)C(F)(F)F.c1c(CN2CCCC2)nc2n1CCN(C1CCOCC1)C2
Toxoplasma: 12.17
T. brucei: -44.35

Compound: CCn1cc(CN2CCCN(C(=O)c3cc(C)no3)CC2)cn1
Toxoplasma: 1.553
TcHisRS: 4.373
LiHisRS: 7.965

Compound: CC(C)c1nnsc1CNC(=O)C1CCN(C(=O)C2CCCC2)CC1
Toxoplasma: 1.34
TcHisRS: 2.762
LiHisRS: -2.41
T. brucei: -57.54

Compound: CC1Cc2ccccc2N1C(=O)Cn1nc(-c2cccs2)cc(N)c1=O (stereo unspecified)
Toxoplasma: -1.034
TcHisRS: -4.135
LiHisRS: 2.837

Compound: COc1cnc(N2CCN(C)CC2)nc1-c1ccnn1C
Toxoplasma: 16.75
TcHisRS: 6.173
LiHisRS: 13.73
T. brucei: -32.24

Compound: CCOCC1c2c(cnn2CC2CC2)CCN1Cc1nccs1 (stereo unspecified)
TcHisRS: 4.762
LiHisRS: 13.89

Compound: CCN(CC)C(=O)Cn1c(=O)n(Cc2ccco2)c2ncccc21
Toxoplasma: 8.647
TcHisRS: 2.198
LiHisRS: 15.94
T. brucei: 9.104

Compound: Cc1ccc(S(=O)(=O)NCCNC(=O)c2ccoc2)cc1C
Toxoplasma: -10.36
TcHisRS: 9.184
LiHisRS: 19.83
T. brucei: 23.28

Compound: Cc1ccccc1N1CCN(c2ccncn2)C(C)C1 (stereo unspecified)
Toxoplasma: 4.637
TcHisRS: 5.419
LiHisRS: 14.47
T. brucei: 96.97

Compound: O=C(c1ccnnc1)N1CC[C@H](OCC2CC2)[C@@H]1Cc1ccncc1
Toxoplasma: 1.724
TcHisRS: 6.468
LiHisRS: 2.778
T. brucei: -12.6

Compound: Fc1ccc(CN2CCC(F)(F)C3(CCN(c4cnccn4)C3)C2)cc1 (stereo unspecified)
TcHisRS: 8
LiHisRS: 26.03

Compound: Cc1nc(C)n(C2CCCN(C(=O)CCc3ccncc3)C2)n1 (stereo unspecified)
Toxoplasma: 3.741
TcHisRS: -6.952
LiHisRS: 17.31
T. brucei: 18.87

Compound: Cc1nc(CN2C[C@@H](NC(=O)C3CCC3)[C@H]3COC[C@H]32)cs1
TcHisRS: 0
LiHisRS: 9.735

Compound: CNC(=O)CN1CCO[C@H]2CN(CC3CCOCC3)C[C@H]21
TcHisRS: 6.897
LiHisRS: 32

Compound: COc1ccc(Cl)cc1CS(=O)(=O)Cc1noc(C)n1
Toxoplasma: 3.91
TcHisRS: -2.128
LiHisRS: 25.37
T. brucei: -13.86

Compound: COc1cccc(-c2cc(C(=O)N3N=C(C)CC3(O)C(F)F)[nH]n2)c1 (stereo unspecified)
Toxoplasma: 5.898
TcHisRS: 1.242
LiHisRS: -7.5
T. brucei: -38.64

Compound: CO[C@H]1CCN(c2nnc(C)s2)C[C@@H]1Cc1ccccc1.O=C(O)C(F)(F)F
Toxoplasma: -2.094
T. brucei: 12.72

Compound: CC(=O)Nc1cnc(-n2ccnc2)nc1
Toxoplasma: -6.873
TcHisRS: 1.463
LiHisRS: 13.56
T. brucei: -8.627

Compound: CC(=O)N1CCN(C(=O)c2c(Cl)c3ccccc3n2C)CC1
Toxoplasma: -3.032
TcHisRS: 3.061
LiHisRS: 9.917
T. brucei: 6.031

Compound: COc1ccc(-c2ccc(C3CNCCO3)nc2)cc1 (stereo unspecified)
TcHisRS: 10.99
LiHisRS: 18.84

Compound: CC1CN(S(=O)(=O)c2ccc(C(=O)NCC(F)F)cc2)CCCO1 (stereo unspecified)
Toxoplasma: 9.258
TcHisRS: 2.4
LiHisRS: 4.425
T. brucei: -14.81

Compound: Cn1cc(C(=O)N2CCN(Cc3cscn3)CC2)ccc1=O
Toxoplasma: 6.136
TcHisRS: 5
LiHisRS: 15.32
T. brucei: 4.807

Compound: CNC(=O)[C@@H](c1ccccc1OC)N1CCC[C@H]1C(=O)NC(C)(C)C
TcHisRS: 4.478
LiHisRS: 19.44

Compound: COc1ccc(C(O)CNC(=O)Nc2cc(C)nn2C)cc1 (stereo unspecified)
Toxoplasma: -2.964
TcHisRS: 1.141
LiHisRS: 7.2
T. brucei: -39.83

Compound: CC(C)=CCN1C(=O)[C@H]2CC[C@@H]1CN(c1ncccc1F)C2
TcHisRS: -2.41
LiHisRS: 23.08